For 40 molecules, AC50 results are on record in PubChem BioAssay AID493014 (National Center for Advancing Translational Sciences (NCATS), 2011).

Some of the results follow. Further columns of the screen follow, without active or inactive calls. Compounds called inactive in the main read-out are mostly missing here. Potencies come from curve fits of mixed quality, noted in brackets.

What is called AC50 is the concentration giving half of the maximal activity seen.

This assay is described as follows: qHTS Assay to Find Inhibitors of Chronic Active B-Cell Receptor Signaling. The settings on record: ABC-DLBCL IkBa-CBG/CBR reporter, luminescence ratio (green luciferase fused to IkBa over red control in TMD8 lymphoma cells), 4 h. Summed up: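 Cell line TMD8 (human ABC DLBCL), stably expressing tet-inducible CBG68-IkBa fusion and CBR; IMDM/0.5% FBS; cpd up to 46 uM; dox induction, 4 h, 37C/5% CO2; dual luminescence; green/red ratio; MG132 control.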
(Quantitative high-throughput screening tests each substance at several concentrations.)

The mark [1] stands for this setting: measured here: CBR red luminescence, cell number.
[2] abbreviates: measured here: IkBa-CBG green luminescence.

For `CCOc1cc(C2/C(=C(/O)c3ccc(OC)cc3)C(=O)C(=O)N2CC2CCCO2)ccc1O` (stereo not drawn), the AC50 under setting [1] was 22.4 µM [falling, single point].
Same read-out and setting: under `Clc1ccc(OCCN2CCCCC2)c(Cl)c1` stands 6.51 µM [rising, single point]; under `CC(C)n1c(C(=O)OCC(=O)NCc2ccc3c(c2)OCO3)cc2sccc21`, 35.5 µM [falling, single point].
Take `Cc1cc(/C=C2/C(=O)NN(c3ccccc3)C2=O)c(C)n1-c1ccc(O)cc1`: under setting [1], the AC50 was 23.1 µM [falling, partial curve, poor fit].
Take `CC1CCN(C(=O)CSc2nc3ccccc3s2)CC1`: the AC50 under setting [1] is 2.91 µM [rising, full curve, poor fit].
In the case of `COc1ccc(CN2C=C3C(=O)C(C)(OC(=O)CCc4ccccc4)C(=O)C=C3C=C2c2ccc(C#N)cc2)cc1` (stereo not drawn), under setting [1], the AC50 is 2.51 µM [rising, full curve, poor fit].
The same measure, in the same setting: under `CC(=O)c1ccc(N2CCN(C(=S)Nc3cccc(Cl)c3)CC2)cc1` stands 25.9 µM [rising, single point].
Turning to `COCCN(C(=O)COC(=O)CSc1ccc2ccccc2c1)c1c(N)n(Cc2ccccc2)c(=O)[nH]c1=O`, the AC50 under setting [1] is 23.1 µM [falling, single point].
Take `O=[N+]([O-])c1ccn(-c2nc(-c3ccccc3)cc(C(F)(F)F)n2)n1`: the AC50 under setting [1] was 31.6 µM [rising, single point].
Take `N#CCSCC(=O)Nc1ccc(Br)cc1`: the AC50 under setting [1] is 18.4 µM [rising, single point].
Take `COc1ccc(C)cc1NC(=O)CNC(c1ccccc1)c1ccc(C)cc1` (stereo not drawn): the concentration at half-maximal activity (AC50) runs as follows: under setting [1], 3.55 µM [rising, full curve, poor fit]; under setting [2], 11.2 µM [falling, partial curve].
`Oc1ccccc1-c1nnc(COc2ccccc2)o1`: the AC50 under setting [1] was 35.5 µM [falling, single point].
Turning to `O=C(Nc1cccc(NC(=O)c2cccs2)c1)c1ccc2c(c1)OCCO2`, the AC50 by setting is: under setting [1], 3.55 µM [falling, partial curve, poor fit]; under setting [2], 12.6 µM [rising, partial curve, poor fit].
Regarding `O=C1/C(=C\c2cccs2)N=C(c2cccs2)N1Nc1ccccc1`, the AC50 under setting [1] was 6.51 µM [rising, full curve, poor fit].
In the case of `O=C(N/N=C/c1ccc(OC(=O)c2ccccc2Cl)cc1)c1cc(O)cc(O)c1`, the concentration at half-maximal activity (AC50) under setting [1] was 10 µM [falling, partial curve].
As for `Cc1nc2ccccc2nc1Nc1cccc(Cl)c1`, under setting [1], the AC50 is 1.12 µM [rising, partial curve, poor fit].
Turning to `N#C/C(=C\C1=C(N2CCOCC2)C(=C/c2cccc([N+](=O)[O-])c2)/CC1)C(=O)Nc1ccccc1F`, the AC50 under setting [1] was 0.651 µM [rising, full curve].
Consider `CCCOc1ccc2nc(NC(=O)OC)[nH]c2c1`, for which the AC50 under setting [1] was 8.2 µM [rising, partial curve, poor fit] and the AC50 under setting [2] is 5.8 µM [falling, full curve].
For `Cc1ccc(NC(=O)CN2CCOCC2)cc1`, the AC50 under setting [1] was 35.5 µM [rising, single point].
`C/C(=N\NC(=O)Cc1ccccc1)c1cccs1`: the AC50 under setting [1] is 6.31 µM [rising, single point].
Still for that read-out and setting: under `O=C(O)c1cc(N/N=C/c2c[nH]c3ccccc23)ccc1Cl` stands 8.91 µM [falling, partial curve]; under `Cc1[nH]n(-c2ccccc2)c(=O)c1/C=N/NC(=O)c1ccccc1F`, 1.12 µM [falling, full curve]; under `COC(=O)c1ccc(COc2ccc3c(C)c(C)c(=O)oc3c2)o1`, 3.55 µM [falling, single point].
Consider `CC(=O)Nc1cccc(C(=O)/C=C/c2cccs2)c1`, for which the AC50 under setting [1] was 14.6 µM [falling, partial curve].
With `Fc1ccccc1C1CC(c2ccco2)=Nc2ccccc2S1` (stereo not drawn), the AC50 under setting [2] is 35.5 µM [falling, partial curve, poor fit].
With `CCc1ccc(NC(=S)N(Cc2ccc(Cl)cc2)Cc2ccc(C(=O)O)cc2)cc1`, the AC50 under setting [1] is 10 µM [falling, partial curve].
Regarding `CC1CCc2nc(/C(C#N)=C/c3cccnc3)sc2C1` (stereo not drawn), the AC50 under setting [1] was 3.98 µM [rising, full curve, poor fit].
As for `COc1ccc(Cn2c(=O)cc(N)n(-c3ccccc3C)c2=O)cc1`, the AC50 under setting [1] is 3.16 µM [rising, full curve, poor fit].
Still for that read-out and setting: under `COc1ccc(/C=C(/NC(=O)c2ccc(OC)cc2)C(=O)NCCc2c[nH]c3ccccc23)cc1` stands 0.92 µM [rising, full curve].
`CCNC(=S)Nc1ccc(Cc2ccncc2)cc1`: the AC50 under setting [1] is 12.6 µM [rising, partial curve, poor fit].
Take `Cc1ccccc1NC(=O)C(Cc1ccccc1)n1cccc1` (stereo not drawn): the AC50 under setting [1] is 0.631 µM [rising, full curve, poor fit].
Take `Cc1cc(C)c(S(=O)(=O)N2CCCCC2CCNC(=O)C(=O)NCCN2CCOCC2)c(C)c1` (stereo not drawn): under setting [1], the AC50 is 29.1 µM [falling, single point].
Take `COc1ccc(C(c2sc3ncnn3c2O)N2CC(C)OC(C)C2)cc1OC` (stereo not drawn): the AC50 under setting [1] is 5.8 µM [falling, partial curve].
As for `Cc1onc(-c2ccccc2Cl)c1C(=O)Oc1cc(N)n(S(=O)(=O)c2ccc(F)cc2)n1`, the AC50 under setting [1] was 35.5 µM [falling, single point].
The same measure, in the same setting: as for `CN1CCN(C(=S)NCCc2ccccc2)CC1`, the figure is 29.1 µM [rising, single point]; as for `Cc1ccccc1Nc1nc(N)nc(COC(=O)[C@@H](NC(=O)c2ccccc2Cl)C(C)C)n1`, 29.1 µM [rising, single point].
Regarding `Cc1cc(/C=N/NC(=O)c2cccnc2)c(C)n1CC(C)C`, under setting [1], the AC50 was 22.4 µM [falling, single point].
On to `Cc1c(-c2cccs2)[n+](=O)c2c(n1[O-])CCCC2`, for which, under setting [1], the AC50 is 1.84 µM [rising, partial curve, poor fit].
Turning to `Cc1ccc(NCc2nnc(SCC(=O)Nc3ncc(C)s3)n2CC2CCCO2)c(C)c1` (stereo not drawn), under setting [1], the AC50 is 11.2 µM [falling, partial curve, poor fit].
In the case of `Nc1cccc(CN2CCCC2)c1`, the AC50 under setting [1] is 5.62 µM [falling, partial curve, poor fit].
